## Melanoma cell counts after drug treatment

Values as published with doi:10.1371/journal.pone.0140310, rounded.

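Human melanoma cells were exposed to a pair of drugs for 72 h in 1,536-well plates and read by automated microscopy after fixing and staining. The read-out is cell count (nuclei) in % of the DMSO control; lower values mean stronger growth inhibition or killing. Every drug was used at one fixed concentration, the higher of two screened. No replicate spread is given; individual values may be noisy.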 Only some of the drugs and lines screened are listed, without regard to their results.

Drugs:
tozasertib (0.03 µM): Cc1cc(Nc2cc(N3CCN(C)CC3)nc(Sc3ccc(NC(=O)C4CC4)cc3)n2)n[nH]1
etoposide (0.1 µM): COc1cc([C@@H]2c3cc4c(cc3[C@@H](O[C@@H]3O[C@@H]5CO[C@@H](C)O[C@H]5[C@H](O)[C@H]3O)[C@H]3COC(=O)[C@H]23)OCO4)cc(OC)c1O
lestaurtinib (0.02 µM): C[C@]12O[C@H](C[C@]1(O)CO)n1c3ccccc3c3c4c(c5c6ccccc6n2c5c31)CNC4=O
embelin (6 µM): CCCCCCCCCCCC1=C(O)C(=O)C=C(O)C1=O
ABT-263 (2 µM): CC1(C)CCC(c2ccc(Cl)cc2)=C(CN2CCN(c3ccc(C(=O)NS(=O)(=O)c4ccc(N[C@H](CCN5CCOCC5)CSc5ccccc5)c(S(=O)(=O)C(F)(F)F)c4)cc3)CC2)C1
darinaparsin (2 µM): C[As](C)SC[C@H](NC(=O)CC[C@H](N)C(=O)O)C(=O)NCC(=O)O
YM155 (0.002 µM): COCC[n+]1c2c(n(Cc3cnccn3)c1C)C(=O)c1ccccc1C2=O
pioglitazone (10 µM): CCc1ccc(CCOc2ccc(CC3SC(=O)NC3=O)cc2)nc1 (configuration not stated)

pioglitazone + tozasertib gave WM451Lu: 88.4; COLO 800: 32.0; C32: 128; WM3619: 74.4; COLO 792: 108; COLO 829: 85.3. Results for embelin + ABT-263 are WM451Lu: 92.5; COLO 800: 31.0; C32: 95.5; WM3619: 89.3; COLO 792: 6.2; COLO 829: 78.2. Results for embelin + darinaparsin are WM451Lu: 91.8; COLO 800: 90.9; C32: 104; WM3619: 76.4; COLO 792: 96.9; COLO 829: 83.1. Results for tozasertib + YM155 are WM451Lu: 26.8; COLO 800: 112; C32: 92.4; WM3619: 71.5; COLO 792: 44.8; COLO 829: 61.4. tozasertib + ABT-263 gave WM451Lu: 67.8; COLO 800: 8.3; C32: 41.0; WM3619: 50.3; COLO 792: 12.8; COLO 829: 63.5.

With tozasertib + embelin the screen read WM451Lu: 83.5; COLO 800: 47.1; C32: 83.1; WM3619: 77.9; COLO 792: 73.6; COLO 829: 61.5. Results for embelin + YM155 are WM451Lu: 62.8; COLO 800: 42.6; C32: 100; WM3619: 85.3; COLO 792: 43.8; COLO 829: 86.9. With embelin + etoposide the screen read WM451Lu: 101; COLO 800: 83.0; C32: 85.9; WM3619: 74.8; COLO 792: 85.8; COLO 829: 61.3. etoposide + ABT-263 gave WM451Lu: 86.1; COLO 800: 33.2; C32: 51.0; WM3619: 43.6; COLO 792: 14.3; COLO 829: 86.5. Results for lestaurtinib + ABT-263 are WM451Lu: 97.1; COLO 800: 33.2; C32: 117; WM3619: 93.9; COLO 792: 5.2; COLO 829: 113.

YM155 + pioglitazone gave WM451Lu: 40.7; COLO 800: 52.8; C32: 95.6; WM3619: 111; COLO 792: 43.4; COLO 829: 71.8. With lestaurtinib + tozasertib the screen read WM451Lu: 74.2; COLO 800: 38.8; C32: 68.2; WM3619: 69.6; COLO 792: 44.1; COLO 829: 75.4. With YM155 + lestaurtinib the screen read WM451Lu: 34.2; COLO 800: 32.7; C32: 112; WM3619: 62.5; COLO 792: 48.9; COLO 829: 85.6. Results for darinaparsin + YM155 are WM451Lu: 23.4; COLO 800: 44.3; C32: 90.9; WM3619: 70.6; COLO 792: 49.5; COLO 829: 74.2. embelin + pioglitazone gave WM451Lu: 110; COLO 800: 75.5; C32: 91.1; WM3619: 92.4; COLO 792: 99.2; COLO 829: 87.9.

With lestaurtinib + embelin the screen read WM451Lu: 114; COLO 800: 85.5; C32: 91.3; WM3619: 38.7; COLO 792: 48.4; COLO 829: 70.3. tozasertib + darinaparsin gave WM451Lu: 76.7; COLO 800: 47.7; C32: 90.9; WM3619: 69.6; COLO 792: 91.6; COLO 829: 75.1. YM155 + etoposide gave WM451Lu: 28.6; COLO 800: 26.8; C32: 90.9; WM3619: 74.8; COLO 792: 43.6; COLO 829: 80.5. darinaparsin + ABT-263 gave WM451Lu: 54.4; COLO 800: 67.0; C32: 73.4; WM3619: 79.2; COLO 792: 11.6; COLO 829: 87.6. With pioglitazone + lestaurtinib the screen read WM451Lu: 91.9; COLO 800: 83.9; C32: 92.0; WM3619: 91.1; COLO 792: 64.7; COLO 829: 83.0.

etoposide + lestaurtinib gave WM451Lu: 77.1; COLO 800: 108; C32: 79.1; WM3619: 89.4; COLO 792: 65.8; COLO 829: 100.

The last 2 entries again:

Combination	WM451Lu	COLO 800	C32	WM3619	COLO 792	COLO 829
pioglitazone + lestaurtinib	91.9	83.9	92.0	91.1	64.7	83.0
etoposide + lestaurtinib	77.1	108	79.1	89.4	65.8	100